{"source": "patent EP0248999A2", "about": "“Uses of enprostil-type prostaglandins in regulating fat and carbohydrate metabolism” (SYNTEX (U.S.A.) INC., priority 1986, dated 1987)", "origin": "cited, not measured here", "tested_on": "intestinal.glucosidase activity", "conditions": "in vivo; cited from earlier work", "note": "At least one structure is not confirmed: it was looked up by name or label, or the drawing left a doubt."}
{"smiles": "C[C@H]1O[C@H](O[C@H]2[C@H](O)[C@@H](O)[C@@H](O[C@H]3[C@H](O)[C@@H](O)C(O)O[C@@H]3CO)O[C@@H]2CO)[C@H](O)[C@@H](O)[C@@H]1N[C@H]1C=C(CO)[C@@H](O)[C@H](O)[C@H]1O", "note": "(some centres unmarked) [Acarbose]", "values": [{"measurement": "postprandial GIP levels", "result": "reduces"}, {"measurement": "postprandial serum glucose levels", "result": "reduces"}, {"measurement": "postprandial serum insulin levels", "result": "reduces"}, {"measurement": "time to achieve peak glucose or insulin levels following a meal", "result": "no delay"}, {"measurement": "total serum cholesterol", "result": "nor is there a change"}]}
